No constants are given. Whether binding was seen depends on the method and setting. Binding seen in cells or lysates may run through a third protein. Some binding calls cover weakened binding; strength is not graded here. Tags and fused reporters may be left off the sequences shown.
T1: GST-fused full-length WTAP (Wilms' tumor 1-associating protein) (mouse) (UniProt Q9ER69)
T1 sequence: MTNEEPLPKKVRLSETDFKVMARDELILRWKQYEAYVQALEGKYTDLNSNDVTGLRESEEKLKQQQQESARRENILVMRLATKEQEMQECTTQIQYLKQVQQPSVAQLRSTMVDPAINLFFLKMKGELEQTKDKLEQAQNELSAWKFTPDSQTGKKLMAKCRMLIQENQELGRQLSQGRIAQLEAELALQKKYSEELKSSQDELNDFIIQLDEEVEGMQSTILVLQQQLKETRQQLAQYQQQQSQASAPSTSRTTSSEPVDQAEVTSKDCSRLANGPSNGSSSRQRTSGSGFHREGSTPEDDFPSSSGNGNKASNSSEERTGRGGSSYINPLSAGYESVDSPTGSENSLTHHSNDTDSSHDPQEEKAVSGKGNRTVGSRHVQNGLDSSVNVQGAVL

The chains behind the UniProt entries cited, without tags or fusion partners.
UniProt Q8C3P7: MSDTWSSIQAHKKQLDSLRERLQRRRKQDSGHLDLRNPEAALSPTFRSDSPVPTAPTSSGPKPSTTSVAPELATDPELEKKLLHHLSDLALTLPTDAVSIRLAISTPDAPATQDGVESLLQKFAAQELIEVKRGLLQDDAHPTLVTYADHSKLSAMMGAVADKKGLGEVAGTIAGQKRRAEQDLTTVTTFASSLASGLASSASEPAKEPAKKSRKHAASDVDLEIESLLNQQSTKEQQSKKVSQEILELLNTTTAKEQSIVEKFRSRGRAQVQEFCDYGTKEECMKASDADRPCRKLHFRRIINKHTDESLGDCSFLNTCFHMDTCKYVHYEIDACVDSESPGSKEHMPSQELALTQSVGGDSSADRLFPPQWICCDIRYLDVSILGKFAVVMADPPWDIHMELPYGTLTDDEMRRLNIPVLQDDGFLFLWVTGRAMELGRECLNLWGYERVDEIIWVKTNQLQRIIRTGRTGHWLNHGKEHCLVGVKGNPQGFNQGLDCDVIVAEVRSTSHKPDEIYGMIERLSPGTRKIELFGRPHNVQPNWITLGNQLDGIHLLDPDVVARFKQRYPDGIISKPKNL


Target: T1, GST-fused full-length WTAP (Wilms' tumor 1-associating protein) (mouse)
Test: pull-down; GST-WTAP (bait) immobilized on glutathione-Sepharose 4B, incubated with lysates of COS cells transfected with FLAG-METTL3 or FLAG-METTL14 (prey); 0.02% NP-40 in lysis, binding and washing buffers; eluted with 10 mg/ml reduced glutathione; Western blot with anti-METTL3, anti-METTL14 and anti-FLAG M2; only the target purified

| binding | Molecule |
| --- | --- |
| binds | FLAG-METTL3 (methyltransferase like 3) (from UniProt Q8C3P7 1-580) |
| binds | FLAG-METTL14 (methyltransferase like 14) (protein, UniProt Q3UIK4 1-456) MDSRLQEIRERQKLRRQLLAQQLGAESADSIGAVLNSKDEQREIAETRETCRASYDTSAPNSKRKCLDEGETDEDKVEEYKDELEMQQEEENLPYEEEIYKDSSTFLKGTQSLNPHNDYCQHFVDTGHRPQNFIRDVGLADRFEEYPKLRELIRLKDELIAKSNTPPMYLQADIEAFDIRELTPKFDVILLEPPLEEYYRETGITANEKCWTWDDIMKLEIDEIAAPRSFIFLWCGSGEGLDLGRVCLRKWGYRRCEDICWIKTNKNNPGKTKTLDPKAVFQRTKEHCLMGIKGTVKRSTDGDFIHANVDIDLIITEEPEIGNIEKPVEIFHIIEHFCLGRRRLHLFGRDSTIRPGWLTVGPTLTNSNYNAETYASYFSAPNSYLTGCTEEIERLRPKSPPPKSKSDRGGGAPRGGGRGGTSAGRGRERNRSNFRGERGGFRGGRGGTHRGGFTPR |

Reference: publication PMC6066751
